In PMC6015222, “Targeting Phosphopeptide Recognition by the Human BRCA1 Tandem BRCT Domain to Interrupt BRCA1-Dependent Signaling” (Cell Chemical Biology, 2018):
These are yes or no findings as the source states them, for the method shown. Some results given as binding are weak or reduced against the parent protein; the word gives no strength.

Protein sequences, listed by entry. Tags and fused reporters are not part of them. Residues count along the entry.
UniProt P38398, residues 1646-1859: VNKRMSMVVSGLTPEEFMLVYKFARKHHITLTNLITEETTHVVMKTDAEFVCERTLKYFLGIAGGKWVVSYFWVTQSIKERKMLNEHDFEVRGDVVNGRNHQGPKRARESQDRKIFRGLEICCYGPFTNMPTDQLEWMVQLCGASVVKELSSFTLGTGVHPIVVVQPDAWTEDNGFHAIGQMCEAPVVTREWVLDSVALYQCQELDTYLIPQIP

Target: human BRCA1 tandem BRCT domain (residues 1646-1859) (human) (UniProt P38398)
Test: MST; competitive: 20 nM NT-647-labelled protein with 2 uM cognate peptide substrate and compound in 16 dilutions; 20 mM Tris pH 7.4, 200 mM NaCl, 0.05% Tween-20, 2 mM DTT; 22°C; both purified

B1: BACH1 phosphopeptide (GGSRSTpSPTFNK-NH2) (peptide)
peptide: GGSRSTSPTFNK
modifications: phosphoserine at residue 7 of the peptide (Ser990 of BACH1); C-terminal amide
  binding: binds
